Our source for the percent viability values is the supplement of paper PMC8256030.

Molecules are shown by their SMILES. Where “and” joins values, the source holds several entries; their conditions need not be identical. Identical values can stand only once. The list shows a part of the results. This data set is noisy: repeats of one test often differ as much as different tests do.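 HEK293T cells were given each compound shortly before transfection with a reporter in which red mCherry is followed by the SARS-CoV-2 frameshift element and then GFP in the −1 frame, so GFP appears only after frameshifting.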

This test concerns HEK293T. Briefly: percent viability (nuclei count) relative to control; higher = more viable cells. The following applies: 10 µM; 24 h.
`O=C(O)C1=C(CSc2nnnn2CS(=O)(=O)O)CS[C@@H]2[C@H](NC(=O)[C@H](O)c3ccccc3)C(=O)N12` [Monocid]: the percent viability came to 185%.
Turning to `C[C@H](NC(=O)[C@H](CC(=O)O)NC(=O)CNC(=O)CNC(=O)[C@H](C)NC(=O)[C@@H](N)Cc1c[nH]c2ccccc12)C(=O)N[C@@H](CO)C(=O)NCC(=O)N[C@@H](CCC(=O)O)C(=O)O` [emideltide], the percent viability is 123%.
Then `O=C1CN2Cc3c(ccc(Cl)c3Cl)N=C2N1` [anagrelide], with 67.4%; and `NC(=O)Oc1ccc(Cc2ccccc2)cc1` [diphenan], with 115%.
Take `O=C(O)c1ccc(NC(=O)[C@H](Cc2ccc(O)cc2)NC(=O)c2ccccc2)cc1` [Chymex]: the percent viability was 240%.
`C[C@@H](C(=O)O)c1ccc(-c2ccccc2)c(F)c1` [tarenflurbil]: the percent viability was 113%.
In the case of `CC(C)NCC(O)c1cc(O)cc(O)c1` (centres undefined) [orciprenaline], the percent viability was 209%.
Consider `CC(=O)Oc1cccc(O)c1`, for which the percent viability stood at 409%.
As for `CNCCCN1c2ccccc2CCc2ccccc21` [desipramine], the percent viability was 219%.
`COc1ccc(C(=C(c2ccccc2)[N+](=O)[O-])c2ccc(OCCN3CCCC3)cc2)cc1` [nitromifene]: the percent viability amounted to 437%.
On to `NC(=O)[C@@H]1CCCN1C(=O)[C@H](Cc1c[nH]cn1)NC(=O)[C@@H]1CCC(=O)N1`, for which the percent viability amounted to 334%.
For the compound `Cc1nc(=O)c2cc(CN(C)c3ccc(C(=O)N[C@@H](CCC(=O)O)C(=O)O)s3)ccc2[nH]1` [raltitrexed], the percent viability came out at 167%.
With `CN1CCN(CCC(=O)N2c3ccccc3Sc3ccc(C(F)(F)F)cc32)CC1` [ftormetazine], the percent viability turned out to be 14.4%.
On to `NC[C@H]1CC[C@H](C(=O)O)CC1` [Tranexamic acid], for which the percent viability was 224%.
As to `Nc1nc2c(ncn2COCCO)c(=O)[nH]1` [aciclovir], the percent viability turned out to be 255%.
The figure for `CCCCNc1c(C(=O)OCC)c(C)nc2c1cnn2CC` [tracazolate] is 110%; for `CC(C)(O/N=C(\C(=O)N[C@@H]1C(=O)N2C(C(=O)[O-])=C(C[n+]3ccccc3)CS[C@H]12)c1csc(N)n1)C(=O)O` it is 135%; for `CCCCC1C(=O)N(c2ccccc2)N(c2ccccc2)C1=O` [phenylbutazone] it is 238% and 272%.
In the case of `CC(=O)Nc1c(I)c(NC(C)=O)c(I)c(C(=O)O)c1I` [sodium amidotrizoate], the percent viability is 158%.
Turning to `C=C[C@H]1CN2CC[C@H]1C[C@H]2[C@H](O)c1ccnc2ccc(OC)cc12`, the percent viability is 200% and 189%.
For the compound `O=C(O)CN1C(=O)c2cccc3cccc(c23)C1=O` [alrestatin], the percent viability stood at 351%.
Consider `CCOC(=O)c1cnc2c(cnn2CC)c1NN=C(C)C` [etazolate], for which the percent viability came out at 200%.
For the compound `C[C@]12CCC(=O)C=C1[C@@H]1C[C@@H]1[C@H]1[C@@H]3[C@@H]4C[C@@H]4[C@@]4(CCC(=O)O4)[C@@]3(C)CC[C@@H]12` [drospirenone], the percent viability is 129% and 246%.
Consider `O=P(O)(O)C(O)(Cn1ccnc1)P(=O)(O)O` [Zoledronic acid], for which the percent viability was found to be 199%.
Then `CC(SC(=O)c1cccs1)C(=O)NCC(=O)O` (centres undefined) [stepronin], with 272%; and `CCOc1ccc(Cc2nccc3cc(OCC)c(OCC)cc23)cc1OCC` [ethaverine], with 38.6%; and `O=C(/C=C/c1ccc(CN(CCO)CCc2c[nH]c3ccccc23)cc1)NO` [dacinostat], with 6.4%.
Then `Cc1ccc(-n2[nH]c(C)c(N=Nc3cccc(-c4cccc(C(=O)O)c4)c3O)c2=O)cc1C` [eltrombopag], with 135%; and `Cc1cc(CC(C)CC(C)(C)C)n(O)c(=O)c1` (centres undefined) [piroctone], with 33.4%.
Take `CNCC[C@@H](Oc1ccccc1C)c1ccccc1` [Atomoxetine, Strattera,Tomoxetin]: the percent viability was 401%.
Then `CCCCCCCC/C=C\CCCCCCCC(=O)O.NCCO`, with 129%; and `O=C1C(=O)c2ccccc2C(O)=C1C1CCC(c2ccc(Cl)cc2)CC1` (centres undefined) [atovaquone], with 216%; and `COc1cc2cc(c1Cl)N(C)C(=O)C[C@H](OC(=O)[C@H](C)N(C)C(C)=O)[C@]1(C)O[C@H]1[C@H](C)[C@@H]1C[C@@](O)(NC(=O)O1)[C@H](OC)/C=C/C=C(\C)C2` [maitansine], with 12.8%.
Then `O=C(CCCCC(=O)Nc1c(I)cc(I)c(C(=O)O)c1I)Nc1c(I)cc(I)c(C(=O)O)c1I` [adipiodone], with 160%; and `O=C(O)c1cc(/N=N/c2ccc(O)c(C(=O)O)c2)ccc1O`, with 137%.
For `NS(=O)(=O)c1cc2c(cc1C(F)(F)F)NCNS2(=O)=O` [hydroflumethiazide], the percent viability amounted to 124%.
As for `NS(=O)(=O)c1cc2c(cc1Cl)N=C(CSCc1ccccc1)NS2(=O)=O` [benzthiazide], the percent viability amounted to 195%.
Take `CO[C@@H]1[C@@H](O[C@@H]2O[C@H](C)[C@@H](O[C@H]3C[C@@](C)(O)[C@@H](OC(=O)CC(C)C)[C@H](C)O3)[C@H](N(C)C)[C@H]2O)[C@@H](CC=O)C[C@@H](C)[C@@H](O)/C=C/C=C/C[C@@H](C)OC(=O)C[C@H]1OC(C)=O` [Josacine]: the percent viability was 149%.
For the compound `CN1CCN(C2=Nc3cc(Cl)ccc3Nc3ccccc32)CC1` [Clozapine], the percent viability is 251%.
